# Where a name gives a salt, the structure may show the parent alone. The list shows a part of the results. This data set is noisy: repeats of one test often differ as much as different tests do.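 Human kidney-derived cells stably carry a construct in which eight TEAD-binding elements drive luciferase, measured by luminescence in a drug-repurposing library screen. A hit is any compound whose signal exceeds the plate mean by more than five robust Z scores.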
# Tested on: HEK293A TEAD-LUC reporter
# Experiment: TEAD-luciferase reporter activity (YAP activation), robust Z score vs plate; higher = stronger YAP/TEAD activation
# Conditions: 24 h
Compound,TEAD-luciferase reporter activity (compound concentration: 200 nM),TEAD-luciferase reporter activity (compound concentration: 2 uM),TEAD-luciferase reporter activity (compound concentration: 10 uM)
Cc1c(S(=O)(=O)Nc2ccc(-c3nc(C(=O)O)cs3)cc2S(C)(=O)=O)sc2ccc(F)cc12,inactive: -1.17,inactive: 2.63,inactive: -1.73
Cc1ccc(CCSC(Cc2ccc(CCOc3ccc(OS(C)(=O)=O)cc3)cc2)C(=O)O)cc1 (stereo not drawn),inactive: -0.818,inactive: -0.403,inactive: -0.206
Cc1ccc2c(Br)cc(Br)c(OC(=O)c3cccc(F)c3)c2n1,inactive: 0.214,inactive: 3.53,inactive: 1.19
CCONC(=O)c1cc(Br)ccc1O,inactive: 0.138,inactive: -1.13,inactive: -0.267
CC1=C(/C=C/C(C)=C/C=C/C(C)=C/C(=O)O)C(C)(C)CCC1 [trans-Retinoic acid302-79-4],inactive: -0.81,–,inactive: 0.0201
CC1=C(/C=C/C(C)=C/C=C/C(C)=C/C(=O)O)C(C)(C)CCC1 [Tretinoin],–,inactive: 0.755,–
c1ccc(-c2nnc(NC3CCCCCCC3)c3ccccc23)cc1,inactive: -2.53,inactive: -0.52,inactive: -0.961
Cc1ccc(C)n1Nc1ccc(N2CCOCC2)nn1 [mopidralazine],inactive: -1.41,inactive: 0.00211,inactive: 0.917
Cn1cc2c(-c3ccc(F)cc3)c(-c3ccncc3)c(-c3ccc(F)cc3)nc2n1,inactive: -0.507,inactive: -2.43,inactive: -0.34
COc1ccc2[nH]c(S(=O)Cc3ncc(C)c(OC)c3C)nc2n1 (stereo not drawn),inactive: -2.39,inactive: -0.856,inactive: 1.22
NC(=O)c1[nH]c2ccc(Cl)cc2c1Sc1ccccc1,inactive: 0.589,inactive: 1.39,inactive: -0.00561
COC(=O)c1ccccc1NC(=O)CN(C)C,inactive: -0.805,inactive: 1.73,inactive: 1.87
COc1ccc([C@@H]2[C@@H](CC[C@H](O)c3ccc(F)cc3)C(=O)N2c2ccc(CNC(=O)CCCCCCCCCCC(=O)NC[C@H](O)[C@@H](O)[C@H](O)[C@H](O)CO)cc2)cc1 [Canosimibe],inactive: -0.425,inactive: -0.54,inactive: -0.879
c1ccc2c(CCNc3ccc(Nc4ccncc4)cc3)c[nH]c2c1 [serdemetan],inactive: -1.47,inactive: 1.12,inactive: 3.65
CCC[N+]12C3C[C@H](C4C(O)[C@]5(C[C@@H]41)c1ccccc1N(C)[C@@H]35)[C@H](CC)[C@H]2O (stereo partly drawn) [Prajmalium bitartrate],inactive: 0.707,inactive: 0.682,inactive: 2.65
COc1ccccc1SC[C@@H](C)CN[C@@H]1COc2ccccc2SC1,inactive: -1.33,inactive: -0.669,inactive: 2.79
CCCCCCCCCCCCCCCCOCCCOP(=O)(O)CO[C@H](CO)Cn1ccc(N)nc1=O,inactive: -0.66,inactive: -0.538,inactive: -0.342
COc1cc(N)c(Cl)cc1C(=O)NC1CCNCC1OC (stereo not drawn) [Ticalopride],inactive: 0.843,inactive: -1.11,inactive: -0.515
CCCCCCCCCC(=O)N[C@@H](Cc1c[nH]c2ccccc12)C(=O)N[C@H](CC(N)=O)C(=O)N[C@@H](CC(=O)O)C(=O)N[C@@H]1C(=O)NCC(=O)N[C@@H](CCCN)C(=O)N[C@@H](CC(=O)O)C(=O)N[C@H](C)C(=O)N[C@@H](CC(=O)O)C(=O)NCC(=O)N[C@H](CO)C(=O)N[C@@H]([C@H](C)CC(=O)O)C(=O)N[C@@H](CC(=O)c2ccccc2N)C(=O)O[C@@H]1C [Daptomycin],inactive: -0.0228,inactive: 0.215,inactive: 1.01
COc1cc(CNCCC2CCOCC2)ccc1Oc1cnc(C(N)=O)cn1 [bevenopran],inactive: -1.3,inactive: 1.95,inactive: 1.13
CC1(C)O[C@@H]2C[C@H]3[C@@H]4C[C@H](F)C5=CC(=O)C=C[C@]5(C)[C@@]4(F)[C@@H](O)C[C@]3(C)[C@]2(C(=O)CO)O1 [fluocinolone acetonide sustained-release implant],–,inactive: 0.162,–
CC1(C)O[C@@H]2C[C@H]3[C@@H]4C[C@H](F)C5=CC(=O)C=C[C@]5(C)[C@@]4(F)[C@@H](O)C[C@]3(C)[C@]2(C(=O)CO)O1,inactive: -0.11,–,inactive: 0.735
Cn1cncc1[C@@](N)(c1ccc(C#N)cc1)c1cc2cc(C#N)cc(-c3cccc(F)c3)c2o1,inactive: -0.874,inactive: 2.98,inactive: -1.15
CC1(CN2CCC(n3c(=O)[nH]c4ccccc43)CC2)OCc2ccccc2-n2cccc21 (stereo not drawn) [Zaldaride maleate],–,inactive: -1.33,–
CC(C)N(C[C@H]1O[C@@H](n2cnc3c(N)ncnc32)[C@H](O)[C@@H]1O)[C@H]1C[C@@H](CCc2nc3cc(C(C)(C)C)ccc3[nH]2)C1 [Pinometostat],inactive: 1.76,inactive: -0.776,inactive: -0.786
O=C(O)CCc1nc(-c2ccccc2)c(-c2ccccc2)o1 [oxaprozin],–,inactive: -1.29,–

# Part of the list above, reduced to TEAD-luciferase reporter activity (compound concentration: 200 nM) and TEAD-luciferase reporter activity (compound concentration: 2 uM):
Compound | TEAD-luciferase reporter activity (compound concentration: 200 nM) | TEAD-luciferase reporter activity (compound concentration: 2 uM)
COc1ccccc1SC[C@@H](C)CN[C@@H]1COc2ccccc2SC1 | inactive: -1.33 | inactive: -0.669
CCCCCCCCCCCCCCCCOCCCOP(=O)(O)CO[C@H](CO)Cn1ccc(N)nc1=O | inactive: -0.66 | inactive: -0.538

# Reference: the supplement of paper PMC10735217
